Values joined by “and” are separate entries in the source; they are usually repeats but may differ in a detail not shown here. Identical values can stand only once. Screen size: about 350,000 compounds; about 6,000 (1.7%) were called active. The shares of active, inactive and inconclusive entries below differ from those in the screen. Cut-off read from the data, not from the text of the source: active = CPE inhibition above about 20% (passing the limit was not always enough); inconclusive = no clear call, values can overlap the other calls; tested in BHK-21 cells.
Experiment: protection of cells from dengue 2 killing – plate reader, single concentration, primary screen (AID 651640);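 note: 0% = median of neutral control wells and 100% = median of positive control wells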
Settings: DENV2-infected cells, cytopathic effect rescue, at 9.99 µM, stronger effect = higher value

Row | SMILES | CPE inhibition
1 | Cc1ccc(C(=O)OC(C)CN2CCN(C)CC2)cc1 (stereo unspecified) | inconclusive: 46%
2 | CCOc1ccccc1CNS(=O)(=O)c1cc(-c2cc(C)no2)ccc1OC | inactive: -0.538%
3 | CC(=O)c1cccc(OCc2cc(C(=O)NC(C)Cc3cccnc3)no2)c1 (stereo unspecified) | inconclusive: 53.1%
4 | CN1C(=O)c2cc(NC(=O)c3cnccn3)ccc2OC[C@@H]2O[C@H](CC(=O)O)CC[C@H]21 | inactive: 3.09%
5 | Cc1ccc(S(=O)(=O)N(C)C[C@@H]2Oc3ccc(NC(=O)Cc4cn(C)c5ccccc45)cc3CC(=O)N([C@@H](C)CO)C[C@H]2C)cc1 | inactive: -6.66%
6 | O=C1CCN(Cc2ccc(Br)cc2)CCN1CCO | active: 29.2%
7 | C[C@H](CO)N1C[C@H](C)[C@H](CN(C)CC2CCCCC2)OCCCC[C@H](C)Oc2ccc(NC(=O)CCC(F)(F)F)cc2C1=O | inactive: -6.61%
8 | COc1cc(C(C)=O)ccc1Oc1ccc(S(=O)(=O)N2CCOCC2)cn1 | inconclusive: 20%
9 | Cc1nn(-c2ccc(N3CCCCC3)nn2)c(C)c1CCC(=O)Nc1ccc(F)c(F)c1 | inconclusive: 23.6%
10 | COc1ccc(-c2ccc([C@@H]3[C@@H](CO)N4CCCCN(CC5CCOCC5)C[C@H]34)cc2)cc1 | active: 47.7%
11 | C/C(=N\NC(=O)CNC(=O)c1cccc(F)c1)c1ccc2ccccc2c1 | inconclusive: 28.4%
12 | C[C@@H]1CN([C@@H](C)CO)C(=O)c2cccc(NS(=O)(=O)c3cn(C)cn3)c2O[C@@H]1CN(C)Cc1ccncc1 | inconclusive: 25.6%
13 | O=C(C[C@H]1CC[C@H]2[C@@H](COC[C@@H](O)CN2Cc2ccncc2)O1)NCc1ccncc1 | inactive: -1.84%
14 | COc1ccc(COC[C@H](C)[C@H](O)[C@@H](C)[C@H]2OC(=O)[C@@H]2C)cc1 | inconclusive: 20.5%
15 | O=C(C1=C[C@@H](c2ccc(Br)cc2)C[C@@H](OCCCCO)O1)N1CCOCC1 | inconclusive: 34.6%
16 | C[C@@H]1CN([C@H](C)CO)C(=O)c2cccc(NC(=O)Nc3ccc(C(F)(F)F)cc3)c2O[C@H]1CN(C)Cc1ccncc1 | inactive: 4.56%
17 | COc1ccc(-c2ccc3c(n2)CCCN3Cc2ccccc2C(F)(F)F)cc1 | inconclusive: 20.3%
18 | CO[C@@H]1CN(C)C(=O)c2cc(NC(=O)C3CCCC3)ccc2OC[C@H](C)N(C)C[C@@H]1C | inactive: 4.63%
19 | COCCNC(=O)C[C@H]1CC[C@@H]2[C@H](COc3ccc(NC(=O)C4CCCC4)cc3C(=O)N2C)O1 | inconclusive: 30.6%
20 | COC(=O)c1cn(Cc2ccc(C(F)(F)F)cc2)cc(F)c1=O | inactive: -2.44%
21 | CCS(=O)(=O)Nc1ccc(C(=O)NCCSc2ccccc2)cc1 | active: 32%
22 | COc1ccc(C(O)c2nc(-c3cnn(C)c3)cs2)cc1 (stereo unspecified) | inconclusive: 40.6%
23 | CC(=O)c1sc(=S)n(Cc2ccccc2)c1C | inconclusive: 22.5%
24 | Cc1ccccc1CC1(CO)CCCN(Cc2nc(-c3cccs3)oc2C)C1 (stereo unspecified) | inactive: 4.92%

Row | SMILES | CPE inhibition
25 | CC(C)NC(=O)Nc1ccc2c(c1)C(=O)N([C@@H](C)CO)C[C@@H](C)[C@H](CN(C)S(=O)(=O)c1ccc(F)cc1)O2 | inconclusive: 36.8%
26 | CCC(C)[C@H](N)c1cn([C@@H](CCCCN)C(=O)N2CCNCC2)nn1 (stereo partly specified) | inconclusive: 54.3%
27 | CNC[C@H]1Oc2ccc(NS(=O)(=O)c3ccc(OC)cc3)cc2C(=O)N([C@H](C)CO)C[C@H]1C | inconclusive: 46.4%
28 | CCN1CCN(c2nc3c(C)cccn3c(=O)c2/C=C(\C#N)C(=O)NC)CC1 | inconclusive: 45.8%
29 | COc1ccc(C(=O)NCCOc2cccc(Oc3ccccc3)c2)cc1OC | active: 48.4%
30 | COc1ccc(Cc2nnc(NC(=O)c3ccccc3[N+](=O)[O-])s2)cc1 | inactive: 5.48%
31 | O=C(CCC(=O)Nc1ccc(F)cc1)N/N=C/c1cccc(Br)c1 | inconclusive: 28%
32 | O=C(O)[C@@H]1[C@@H](CO)[C@@H]2Cn3c(ccc(C4=CCCCC4)c3=O)[C@@H]2N1C(=O)Cc1cccnc1 | inconclusive: 21.9%
33 | CC(C)CC1(C(=O)NCCN2CCOCC2)C=CCN1C(=O)c1ccccc1 (stereo unspecified) | inconclusive: 22.1%
34 | O=C(Nc1cccc(-c2nn[nH]n2)c1)c1cccs1 | inconclusive: 21.4%
35 | CC(C)C(=O)N1CCC1(C)C(=O)Nc1cccc(Oc2ccccc2)c1 (stereo unspecified) | inactive: 13.7%
36 | COc1cccc(CN2CC3(CN(S(C)(=O)=O)C3)c3c(n(C)c4cc(OC)ccc34)[C@@H]2CO)c1 | inconclusive: 42.8%
37 | C[C@@H]1CCCCO[C@@H](CN(C)CC2CC2)[C@H](C)CN([C@H](C)CO)C(=O)c2cc(NC(=O)CCC(F)(F)F)ccc2O1 | inactive: -3.81%
38 | CC(=O)C(Sc1ccc2nnc(-c3ccncc3)n2n1)C(C)=O | inconclusive: 27.4%
39 | CCN1C(=O)[C@H]2[C@H]3CN=C(SCc4ccc(C#N)cc4)N3[C@@](CC)(C(=O)OC)[C@H]2C1=O | inconclusive: 64.6%
40 | COC(=O)N/N=C/c1cn(Cc2ccccc2Cl)c2ccccc12 | inactive: -0.727%
41 | O=C(c1ccc(-c2ccccc2)cc1)N1CCC2CC1c1cc(-c3ccc4c(c3)OCO4)ccc12 (stereo unspecified) | inconclusive: 72.4%
42 | CCOc1ccc(/C=N/n2nnnc2N)cc1OCC | active: 27.5%
43 | CC(C)c1cccc(C(C)C)c1NC(=O)CN1C(=O)NC2(CCCCCCC2)C1=O | inconclusive: 43.2%
44 | O=C(NC1CCCCC1)[C@@H]1[C@@H](CO)[C@@H]2Cn3c(cccc3=O)[C@H]1N2CC1CCCC1 | inconclusive: 23.8%
45 | Cc1noc(C)c1NC(=O)N(C)C[C@H]1Oc2c(NC(=O)C3CC3)cccc2C(=O)N([C@H](C)CO)C[C@H]1C | active: 24.4%
46 | CC(C)NC(=O)N(C)C[C@@H]1Oc2ccc(NC(=O)Cc3ccccc3)cc2C(=O)N([C@H](C)CO)C[C@H]1C | active: 77.9%
47 | CCCCn1c(N)c(N(CC)C(=O)Cc2ccc(S(=O)(=O)N3CCOCC3)s2)c(=O)[nH]c1=O | inconclusive: 25.1%
48 | COc1ccc(NC(=O)N2CCCCN3[C@H](C2)[C@H](c2ccc(-c4ccccc4C)cc2)[C@@H]3CO)cc1 | active: 26.8%

Row | SMILES | CPE inhibition
49 | CN1CCN(Cc2nc3ccccc3c(=O)n2Cc2nc(-c3ccc4ccccc4c3)cs2)CC1 | inconclusive: 49.5%
50 | CC(C)c1ccc(S(=O)(=O)N2CCN(C(=O)C3CCCC3)CC2)cc1 | inconclusive: 22.7%
51 | C/C(=N\NC(=O)c1cccc(S(=O)(=O)N2CCOCC2)c1)c1ccc(O)cc1 | inconclusive: 24.3%
52 | C=CCN1C(=O)/C(=C/C=C2/N(CC)c3ccc(S(=O)(=O)N(C)C)cc3N2CC)SC1=S | inactive: -14.9%
53 | O=C(Nc1ccccc1)N[C@@H]1CC[C@H](CCn2cc(-c3ccccc3F)nn2)O[C@@H]1CO | inactive: 10.9%
54 | Cc1noc(C)c1S(=O)(=O)N(C)C[C@@H]1Oc2ccc(NC(=O)C3CCCCC3)cc2CC(=O)N([C@H](C)CO)C[C@@H]1C | inactive: 5.4%
55 | OC(c1ccccc1)c1ccncc1 (stereo unspecified) | inconclusive: 20.3%
56 | CC(C)C[C@H]1CNC(=S)N1C[C@H]1CCCN1C[C@H](CC(C)C)N1C[C@H](Cc2ccc(O)cc2)N(CCc2ccccc2)C1=S | active: 39.1%
57 | CCNC(=O)C[C@@H]1CC[C@@H]2[C@@H](COc3ccc(NC(=O)c4cscn4)cc3C(=O)N2C)O1 | inconclusive: 28.8%
58 | C[C@H](CO)N1C[C@H](C)[C@@H](CN(C)Cc2ccc(-c3ccccc3)cc2)Oc2ccc(NC(=O)Cc3cn(C)c4ccccc34)cc2C1=O | inactive: 4.73%
59 | Cc1noc(C)c1NC(=O)Nc1ccc2c(c1)C(=O)N([C@@H](C)CO)C[C@H](C)[C@@H](CN(C)Cc1ccccc1)O2 | active: 29.1%
60 | CC(=O)Nc1ccc(NC(=O)C2CCCN2S(=O)(=O)c2cccc3nsnc23)cc1 (stereo unspecified) | inconclusive: 38.7%
61 | COc1ccccc1-c1cn(CC[C@@H]2CC[C@@H](NC(=O)c3ccccc3F)[C@@H](CO)O2)nn1 | inactive: -4.96%
62 | COc1ccc(S(=O)(=O)Nc2ccc3c(c2)C(=O)N([C@H](C)CO)C[C@H](C)[C@@H](CN(C)S(=O)(=O)c2ccc(Cl)cc2)OCCCC[C@H](C)O3)cc1 | inactive: -2.49%
63 | O=C(Nc1cccc(-c2nn[nH]n2)c1)c1ccc(Cl)s1 | inconclusive: 36.5%
64 | Cc1noc(C)c1NC(=O)N(C)C[C@H]1OCCCC[C@@H](C)Oc2ccc(NC(=O)c3ccncc3)cc2C(=O)N([C@@H](C)CO)C[C@H]1C | inactive: 7.94%
65 | COc1cccc(NC(=O)Nc2ccc3c(c2)C(=O)N(C)C[C@@H](OC)[C@H](C)CN(CC2CC2)[C@@H](C)CO3)c1 | inactive: 7.62%
66 | CNC[C@H]1Oc2c(NC(=O)c3nc4ccccc4s3)cccc2C(=O)N([C@@H](C)CO)C[C@H]1C | inconclusive: 20.2%
67 | C[C@@H]1CN([C@H](C)CO)C(=O)c2cc(NC(=O)C3CCCCC3)ccc2O[C@H]1CN(C)Cc1ccc(C(=O)O)cc1 | inactive: 2.39%
68 | CC(C)CC#Cc1cnc2c(c1)C(=O)N([C@@H](C)CO)C[C@@H](C)[C@H](CN(C)C(=O)NC1CCCC1)O2 | inactive: 8.62%
69 | C[C@H](NC(=O)Cc1ccccc1)C(=O)N1CCC2(CC1)NCCc1[nH]cnc12 | inconclusive: 20.5%
70 | O=C(NCc1ccncc1)c1cccc(NS(=O)(=O)c2ccc(F)c(F)c2)c1 | active: 41.4%
71 | C[C@H]1CN([C@@H](C)CO)S(=O)(=O)c2ccc(Br)cc2O[C@@H]1CN(C)C(=O)CCN1CCCCC1 | inconclusive: 28.5% and inconclusive: 20.1%
